# Measured values taken from the supplement of paper PMC11732987, “Enantioselective OTUD7B fragment discovery through chemoproteomics screening and high-throughput optimisation” (Communications Chemistry, 2025).
# By UniProt entry, the sequences of proteins in these tests, tags left out. Where a name states a change or a piece, a line headed by the entry shows the natural chain unless it says otherwise. Residues count along the entry.
# UniProt Q9H4L7: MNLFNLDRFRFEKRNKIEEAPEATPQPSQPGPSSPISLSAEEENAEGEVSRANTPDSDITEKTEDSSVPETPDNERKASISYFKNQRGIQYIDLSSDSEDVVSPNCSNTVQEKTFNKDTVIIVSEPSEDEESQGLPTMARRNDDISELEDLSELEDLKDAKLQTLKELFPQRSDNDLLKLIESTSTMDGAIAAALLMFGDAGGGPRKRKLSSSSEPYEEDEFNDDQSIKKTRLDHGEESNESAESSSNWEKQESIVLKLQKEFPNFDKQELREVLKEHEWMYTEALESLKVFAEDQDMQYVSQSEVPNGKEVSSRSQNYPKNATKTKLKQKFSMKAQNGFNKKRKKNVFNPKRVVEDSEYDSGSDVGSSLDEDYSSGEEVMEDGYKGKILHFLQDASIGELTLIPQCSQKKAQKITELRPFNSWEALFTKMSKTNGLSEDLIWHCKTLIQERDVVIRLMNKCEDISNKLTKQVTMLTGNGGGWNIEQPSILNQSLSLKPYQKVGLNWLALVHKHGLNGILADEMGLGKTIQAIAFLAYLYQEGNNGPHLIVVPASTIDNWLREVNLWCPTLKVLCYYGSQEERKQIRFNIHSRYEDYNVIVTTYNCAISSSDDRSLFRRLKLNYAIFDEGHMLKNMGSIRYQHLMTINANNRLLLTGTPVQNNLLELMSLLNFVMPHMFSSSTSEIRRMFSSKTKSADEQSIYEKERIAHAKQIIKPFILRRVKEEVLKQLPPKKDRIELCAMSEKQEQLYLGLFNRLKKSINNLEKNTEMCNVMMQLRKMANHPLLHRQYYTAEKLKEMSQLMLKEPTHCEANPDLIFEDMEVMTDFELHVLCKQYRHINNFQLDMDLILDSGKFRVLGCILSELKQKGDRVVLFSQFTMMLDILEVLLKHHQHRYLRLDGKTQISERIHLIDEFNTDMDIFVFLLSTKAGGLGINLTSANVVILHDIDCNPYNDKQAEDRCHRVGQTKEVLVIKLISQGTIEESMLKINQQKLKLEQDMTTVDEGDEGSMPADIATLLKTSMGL
# UniProt Q9BWU0, 647-671: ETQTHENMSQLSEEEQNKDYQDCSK
# UniProt Q96A46: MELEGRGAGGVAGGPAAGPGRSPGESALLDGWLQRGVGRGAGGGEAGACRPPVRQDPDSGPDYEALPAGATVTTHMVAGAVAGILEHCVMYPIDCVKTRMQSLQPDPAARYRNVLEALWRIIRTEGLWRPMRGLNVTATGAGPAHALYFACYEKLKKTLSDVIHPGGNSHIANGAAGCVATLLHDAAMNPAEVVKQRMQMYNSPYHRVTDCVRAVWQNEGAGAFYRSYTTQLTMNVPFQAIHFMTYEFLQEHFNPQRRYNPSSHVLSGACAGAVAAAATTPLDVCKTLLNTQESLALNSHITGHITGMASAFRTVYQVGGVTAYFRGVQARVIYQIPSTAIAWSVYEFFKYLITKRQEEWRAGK
# UniProt Q8N0X7, 389-414: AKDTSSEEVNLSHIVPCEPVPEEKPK
# UniProt Q96SB8: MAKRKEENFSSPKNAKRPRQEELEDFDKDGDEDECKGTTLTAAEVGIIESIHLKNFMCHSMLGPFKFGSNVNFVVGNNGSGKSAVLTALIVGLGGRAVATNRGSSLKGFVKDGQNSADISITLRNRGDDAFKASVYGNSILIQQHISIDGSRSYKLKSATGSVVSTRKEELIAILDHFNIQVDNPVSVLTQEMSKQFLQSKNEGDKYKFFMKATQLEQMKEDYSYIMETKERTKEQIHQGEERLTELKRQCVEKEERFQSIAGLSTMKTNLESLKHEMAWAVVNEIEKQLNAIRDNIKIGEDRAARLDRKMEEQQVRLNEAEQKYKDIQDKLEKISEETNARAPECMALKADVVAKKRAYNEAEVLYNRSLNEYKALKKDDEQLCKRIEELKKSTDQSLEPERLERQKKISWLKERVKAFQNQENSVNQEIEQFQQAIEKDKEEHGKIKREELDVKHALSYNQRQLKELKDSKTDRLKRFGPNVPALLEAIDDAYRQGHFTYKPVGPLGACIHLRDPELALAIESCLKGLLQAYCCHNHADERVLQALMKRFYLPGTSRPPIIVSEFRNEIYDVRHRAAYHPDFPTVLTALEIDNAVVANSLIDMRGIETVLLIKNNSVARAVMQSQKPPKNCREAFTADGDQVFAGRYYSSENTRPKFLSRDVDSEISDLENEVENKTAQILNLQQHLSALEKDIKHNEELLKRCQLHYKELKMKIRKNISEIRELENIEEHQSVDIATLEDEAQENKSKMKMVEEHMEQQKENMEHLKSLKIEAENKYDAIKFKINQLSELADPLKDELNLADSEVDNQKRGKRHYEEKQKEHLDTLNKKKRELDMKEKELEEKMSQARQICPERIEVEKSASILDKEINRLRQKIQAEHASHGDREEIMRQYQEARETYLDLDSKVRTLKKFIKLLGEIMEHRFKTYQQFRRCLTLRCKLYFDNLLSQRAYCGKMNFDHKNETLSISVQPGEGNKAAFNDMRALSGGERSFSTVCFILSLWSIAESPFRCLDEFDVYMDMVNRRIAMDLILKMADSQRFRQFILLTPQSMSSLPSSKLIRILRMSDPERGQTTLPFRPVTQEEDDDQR
# UniProt Q8IX90: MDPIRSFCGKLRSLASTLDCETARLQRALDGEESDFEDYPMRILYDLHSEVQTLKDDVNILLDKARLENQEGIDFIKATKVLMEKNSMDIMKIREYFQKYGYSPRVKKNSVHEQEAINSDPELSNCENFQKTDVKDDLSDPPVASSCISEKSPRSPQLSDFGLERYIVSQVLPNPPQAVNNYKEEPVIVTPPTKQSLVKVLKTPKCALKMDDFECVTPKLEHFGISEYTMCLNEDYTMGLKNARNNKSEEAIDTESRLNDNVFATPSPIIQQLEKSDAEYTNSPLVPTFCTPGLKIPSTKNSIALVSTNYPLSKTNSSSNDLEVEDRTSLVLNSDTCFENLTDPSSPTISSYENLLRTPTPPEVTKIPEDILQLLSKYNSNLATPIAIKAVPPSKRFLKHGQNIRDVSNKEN
# UniProt Q13433: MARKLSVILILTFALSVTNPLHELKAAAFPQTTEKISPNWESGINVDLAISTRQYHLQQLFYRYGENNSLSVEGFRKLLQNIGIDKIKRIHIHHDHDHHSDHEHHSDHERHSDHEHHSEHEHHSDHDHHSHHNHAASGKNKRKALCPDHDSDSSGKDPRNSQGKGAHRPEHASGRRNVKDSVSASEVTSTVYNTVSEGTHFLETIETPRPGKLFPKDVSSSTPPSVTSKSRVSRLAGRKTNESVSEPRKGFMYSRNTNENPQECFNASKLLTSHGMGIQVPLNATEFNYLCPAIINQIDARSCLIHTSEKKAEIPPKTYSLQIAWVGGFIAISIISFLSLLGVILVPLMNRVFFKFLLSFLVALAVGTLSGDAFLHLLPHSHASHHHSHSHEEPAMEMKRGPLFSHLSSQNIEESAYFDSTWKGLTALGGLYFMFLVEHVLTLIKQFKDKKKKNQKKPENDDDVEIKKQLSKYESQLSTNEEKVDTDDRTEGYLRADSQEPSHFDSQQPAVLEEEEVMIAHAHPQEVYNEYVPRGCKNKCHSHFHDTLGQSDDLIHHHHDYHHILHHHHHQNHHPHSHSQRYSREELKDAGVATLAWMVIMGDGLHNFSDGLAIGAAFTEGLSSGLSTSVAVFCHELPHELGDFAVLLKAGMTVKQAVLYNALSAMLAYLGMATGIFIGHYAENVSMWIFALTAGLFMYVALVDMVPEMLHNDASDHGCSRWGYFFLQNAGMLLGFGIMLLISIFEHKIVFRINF
# UniProt Q92540, 345-365: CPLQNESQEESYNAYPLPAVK
# UniProt Q15043, 277-297: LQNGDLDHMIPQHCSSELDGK
# UniProt Q9UBX3: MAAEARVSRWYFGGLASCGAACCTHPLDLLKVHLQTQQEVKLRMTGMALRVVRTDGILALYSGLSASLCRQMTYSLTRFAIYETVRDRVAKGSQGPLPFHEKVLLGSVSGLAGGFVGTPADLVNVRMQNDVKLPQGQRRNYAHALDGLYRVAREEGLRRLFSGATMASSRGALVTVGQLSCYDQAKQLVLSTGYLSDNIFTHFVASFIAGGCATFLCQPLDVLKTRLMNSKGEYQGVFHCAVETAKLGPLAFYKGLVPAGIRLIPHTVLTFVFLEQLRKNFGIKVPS
# UniProt Q9NZC9: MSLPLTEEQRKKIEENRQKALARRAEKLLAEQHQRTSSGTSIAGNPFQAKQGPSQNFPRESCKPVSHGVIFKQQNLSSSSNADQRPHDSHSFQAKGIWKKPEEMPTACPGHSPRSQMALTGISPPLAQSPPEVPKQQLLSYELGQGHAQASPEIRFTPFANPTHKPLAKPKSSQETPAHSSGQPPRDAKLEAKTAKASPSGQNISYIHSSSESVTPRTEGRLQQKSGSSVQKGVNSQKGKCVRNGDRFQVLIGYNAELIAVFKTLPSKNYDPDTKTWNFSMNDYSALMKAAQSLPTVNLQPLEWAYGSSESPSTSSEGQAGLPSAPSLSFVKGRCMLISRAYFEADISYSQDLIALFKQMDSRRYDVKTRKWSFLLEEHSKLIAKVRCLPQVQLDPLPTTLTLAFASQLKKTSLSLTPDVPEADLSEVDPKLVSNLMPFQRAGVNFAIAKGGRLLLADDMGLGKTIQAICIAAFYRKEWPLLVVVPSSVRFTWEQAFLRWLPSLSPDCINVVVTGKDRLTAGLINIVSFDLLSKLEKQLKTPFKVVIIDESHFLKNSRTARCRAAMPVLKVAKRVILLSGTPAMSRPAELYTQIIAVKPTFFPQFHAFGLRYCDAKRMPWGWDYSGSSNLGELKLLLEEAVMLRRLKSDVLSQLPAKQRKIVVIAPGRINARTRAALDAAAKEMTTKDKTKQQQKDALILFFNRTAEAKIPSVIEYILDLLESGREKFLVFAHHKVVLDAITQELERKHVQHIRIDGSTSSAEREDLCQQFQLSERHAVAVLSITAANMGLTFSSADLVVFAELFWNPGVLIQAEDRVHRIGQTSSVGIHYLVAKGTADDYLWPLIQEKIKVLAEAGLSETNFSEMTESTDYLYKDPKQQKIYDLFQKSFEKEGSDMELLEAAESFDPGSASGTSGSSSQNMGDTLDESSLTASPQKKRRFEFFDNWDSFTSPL
# UniProt P63208, whole entry, looked up: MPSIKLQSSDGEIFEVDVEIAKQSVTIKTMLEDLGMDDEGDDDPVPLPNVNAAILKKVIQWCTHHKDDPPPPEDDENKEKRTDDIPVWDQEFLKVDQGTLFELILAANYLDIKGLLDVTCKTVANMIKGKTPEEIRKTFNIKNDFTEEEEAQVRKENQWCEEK
# UniProt O95391: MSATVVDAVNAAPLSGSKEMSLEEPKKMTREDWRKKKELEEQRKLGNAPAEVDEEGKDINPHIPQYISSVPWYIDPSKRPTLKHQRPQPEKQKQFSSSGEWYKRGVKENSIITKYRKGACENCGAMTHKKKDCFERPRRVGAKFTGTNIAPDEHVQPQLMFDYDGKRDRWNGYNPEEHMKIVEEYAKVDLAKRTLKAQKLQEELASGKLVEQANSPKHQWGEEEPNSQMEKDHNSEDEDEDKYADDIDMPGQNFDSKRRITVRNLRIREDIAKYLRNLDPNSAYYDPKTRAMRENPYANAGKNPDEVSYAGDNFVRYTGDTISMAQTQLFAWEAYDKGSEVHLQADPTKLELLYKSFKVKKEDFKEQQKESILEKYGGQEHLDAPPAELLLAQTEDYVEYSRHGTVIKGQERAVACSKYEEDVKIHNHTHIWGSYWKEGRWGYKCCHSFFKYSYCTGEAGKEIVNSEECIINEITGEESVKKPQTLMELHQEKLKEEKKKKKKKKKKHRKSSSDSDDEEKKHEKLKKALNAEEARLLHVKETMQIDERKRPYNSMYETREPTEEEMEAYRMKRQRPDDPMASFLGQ
# UniProt Q8TEQ0: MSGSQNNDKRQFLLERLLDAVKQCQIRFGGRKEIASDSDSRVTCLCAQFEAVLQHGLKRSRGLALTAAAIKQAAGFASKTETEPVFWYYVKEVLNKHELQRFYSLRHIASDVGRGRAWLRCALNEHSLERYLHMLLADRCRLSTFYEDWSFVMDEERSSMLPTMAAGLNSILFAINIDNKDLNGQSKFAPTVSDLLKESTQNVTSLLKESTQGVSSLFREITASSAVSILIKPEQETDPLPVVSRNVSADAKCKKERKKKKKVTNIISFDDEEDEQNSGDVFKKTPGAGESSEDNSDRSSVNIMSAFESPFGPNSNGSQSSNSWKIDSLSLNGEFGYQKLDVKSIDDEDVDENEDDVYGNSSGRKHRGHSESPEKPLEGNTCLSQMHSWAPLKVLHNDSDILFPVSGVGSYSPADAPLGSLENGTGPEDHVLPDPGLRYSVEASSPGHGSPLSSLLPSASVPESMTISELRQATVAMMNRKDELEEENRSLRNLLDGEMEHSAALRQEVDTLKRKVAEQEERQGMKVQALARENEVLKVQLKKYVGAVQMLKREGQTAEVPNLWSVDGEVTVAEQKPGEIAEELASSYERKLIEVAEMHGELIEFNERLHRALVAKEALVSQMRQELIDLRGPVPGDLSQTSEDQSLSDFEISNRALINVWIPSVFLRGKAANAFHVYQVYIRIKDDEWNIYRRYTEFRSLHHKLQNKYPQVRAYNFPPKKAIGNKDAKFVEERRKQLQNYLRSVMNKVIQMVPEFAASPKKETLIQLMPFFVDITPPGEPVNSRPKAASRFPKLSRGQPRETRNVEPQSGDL
# Some of the results follow. The data scatter; read single values as rough.
# Compound: ClCC(=O)N[C@@H]1CCCc2ccccc12
# Test: log2 mean competition ratio of IA-DTB cysteine labelling (DMSO/compound) (log2 ratio); higher = stronger cysteine engagement by compound
# Settings: 200 µM; treatment time: 4 h; cell line lysate: HEK293T
# Experimental: (§1)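 IA-DTB competitive cysteine chemoproteomics in HEK293T RIPA lysate. Lysates were treated with compound 29 or 30 at 50 or 200 µM for 4 h, then IA-DTB (500 µM, 1 h), trypsin-digested, NeutrAvidin-enriched and analysed by diaPASEF. Competition ratio = intensity DMSO / intensity compound (n=4 treated, n=64 DMSO); binding: mean log2 CR ≥ 1 and p ≤ 0.05 plus QC filters. Target is the cysteine site.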
row,Target,log2 mean competition ratio
1,SMN2 C60,-0.121
2,SMARCAD1 C462 (UniProt Q9H4L7),-0.0175
3,SPAG1 C380 (UniProt Q07617),0.0927
4,SLC4A1AP C723 (UniProt Q9BWU0),0.00295
5,SMG1 C2673 (UniProt Q96Q15),-0.385
6,SLC25A28 C49 (UniProt Q96A46),0.387
7,SKIL C268 (UniProt P12757),0.444
8,SMARCA2 C399 (UniProt P51531),0.0369
9,SNRNP48 C26 (UniProt Q6IEG0),0.218
10,SPART C405 (UniProt Q8N0X7),-0.228
11,SLC27A4 C232 (UniProt Q6P1M0),0.00157
12,SORT1 C740 (UniProt Q99523),0.252
13,SMC6 C251 (UniProt Q96SB8),-0.0483
14,SKA3 C20 (UniProt Q8IX90),0.0824
15,SLC39A6 C303 (UniProt Q13433),-0.00862
16,SMYD2 C321 (UniProt Q9NRG4),0.04
17,SMG7 C537 (UniProt Q92540),-0.171
18,SLC39A14 C290 (UniProt Q15043),0.0668
19,SLC6A15 C367,0.215

row,Target,log2 mean competition ratio
1,SLC25A10 C181 (UniProt Q9UBX3),0.0704
2,SMU1 C298 (UniProt Q2TAY7),-0.204
3,SMARCAL1 C62 (UniProt Q9NZC9),0.158
4,SKP1 C160 (UniProt P63208),-0.0918
5,SLC25A6 C257 (UniProt P12236),0.487
6,SLC39A10 C153 (UniProt Q9ULF5),0.35
7,SLC1A5 C363 (UniProt Q15758),0.161
8,SLU7 C455 (UniProt O95391),0.0766
9,SNX29 C121 (UniProt Q8TEQ0),0.155
10,SMARCAD1 C575 (UniProt Q9H4L7),-0.122
11,SMUG1 C131 (UniProt Q53HV7),0.173
12,SLC39A10 C598 (UniProt Q9ULF5),-0.359
13,SMC2 C585 (UniProt O95347),0.0198
14,SMG8 C555 (UniProt Q8ND04),-0.0829
15,SLC25A6 C57 (UniProt P12236),-0.103
16,SLC25A22 C271 (UniProt Q9H936),0.143
17,SMG8 C861 (UniProt Q8ND04),0.133
18,SLC38A1 C131 (UniProt Q9H2H9),-0.0835
19,SMG7 C345 (UniProt Q92540),0.0412

# Compound: ClCC(=O)N[C@H]1CCCc2ccccc12
# Test: as above
# Settings: 50 µM; treatment time: 4 h; cell line lysate: HEK293T
# Experimental: as §1
row,Target,log2 mean competition ratio
1,SMN2 C60,0.159
2,SMARCAD1 C462 (UniProt Q9H4L7),-0.0989
3,SPAG1 C380 (UniProt Q07617),-0.163
4,SLC4A1AP C723 (UniProt Q9BWU0),0.206
5,SMG1 C2673 (UniProt Q96Q15),0.364
6,SLC25A28 C49 (UniProt Q96A46),-0.406
7,SKIL C268 (UniProt P12757),-0.258
8,SMARCA2 C399 (UniProt P51531),0.173
9,SNRNP48 C26 (UniProt Q6IEG0),-0.146
10,SPART C405 (UniProt Q8N0X7),-0.565
11,SLC27A4 C232 (UniProt Q6P1M0),0.0251
12,SORT1 C740 (UniProt Q99523),-0.114
13,SMC6 C251 (UniProt Q96SB8),-0.371
14,SKA3 C20 (UniProt Q8IX90),0.15
15,SLC39A6 C303 (UniProt Q13433),0.079
16,SMYD2 C321 (UniProt Q9NRG4),-0.124
17,SMG7 C537 (UniProt Q92540),-0.0881
18,SLC39A14 C290 (UniProt Q15043),-0.734
19,SLC6A15 C367,-0.376

row,Target,log2 mean competition ratio
1,SLC25A10 C181 (UniProt Q9UBX3),0.0828
2,SMU1 C298 (UniProt Q2TAY7),0.0814
3,SMARCAL1 C62 (UniProt Q9NZC9),0.134
4,SKP1 C160 (UniProt P63208),0.331
5,SLC25A6 C257 (UniProt P12236),0.718
6,SLC39A10 C153 (UniProt Q9ULF5),-0.669
7,SLC1A5 C363 (UniProt Q15758),-0.094
8,SLU7 C455 (UniProt O95391),-0.454
9,SNX29 C121 (UniProt Q8TEQ0),-0.148
10,SMARCAD1 C575 (UniProt Q9H4L7),0.00813
11,SMUG1 C131 (UniProt Q53HV7),-0.317
12,SLC39A10 C598 (UniProt Q9ULF5),-0.372
13,SMC2 C585 (UniProt O95347),0.246
14,SMG8 C555 (UniProt Q8ND04),-0.188
15,SLC25A6 C57 (UniProt P12236),0.142
16,SLC25A22 C271 (UniProt Q9H936),0.0144
17,SMG8 C861 (UniProt Q8ND04),-0.393
18,SLC38A1 C131 (UniProt Q9H2H9),0.461
19,SMG7 C345 (UniProt Q92540),0.442

# Same assay, conditions: 200 µM; treatment time: 4 h; cell line lysate: HEK293T
row,Target,log2 mean competition ratio
1,SMN2 C60,-0.0335
2,SMARCAD1 C462 (UniProt Q9H4L7),-0.172
3,SPAG1 C380 (UniProt Q07617),0.077
4,SLC4A1AP C723 (UniProt Q9BWU0),0.0974
5,SMG1 C2673 (UniProt Q96Q15),-0.349
6,SLC25A28 C49 (UniProt Q96A46),-0.193
7,SKIL C268 (UniProt P12757),0.0203
8,SMARCA2 C399 (UniProt P51531),-0.149
9,SNRNP48 C26 (UniProt Q6IEG0),0.175
10,SPART C405 (UniProt Q8N0X7),-0.46
11,SLC27A4 C232 (UniProt Q6P1M0),-0.245
12,SORT1 C740 (UniProt Q99523),0.575
13,SMC6 C251 (UniProt Q96SB8),0.0857
14,SKA3 C20 (UniProt Q8IX90),-0.0551
15,SLC39A6 C303 (UniProt Q13433),0.0144
16,SMYD2 C321 (UniProt Q9NRG4),0.176
17,SMG7 C537 (UniProt Q92540),-0.232
18,SLC39A14 C290 (UniProt Q15043),-0.183
19,SLC6A15 C367,0.142

row,Target,log2 mean competition ratio
1,SLC25A10 C181 (UniProt Q9UBX3),0.138
2,SMU1 C298 (UniProt Q2TAY7),-0.134
3,SMARCAL1 C62 (UniProt Q9NZC9),0.206
4,SKP1 C160 (UniProt P63208),0.127
5,SLC25A6 C257 (UniProt P12236),0.513
6,SLC39A10 C153 (UniProt Q9ULF5),0.0589
7,SLC1A5 C363 (UniProt Q15758),0.105
8,SLU7 C455 (UniProt O95391),-0.16
9,SNX29 C121 (UniProt Q8TEQ0),0.0632
10,SMARCAD1 C575 (UniProt Q9H4L7),-0.234
11,SMUG1 C131 (UniProt Q53HV7),0.451
12,SLC39A10 C598 (UniProt Q9ULF5),-0.381
13,SMC2 C585 (UniProt O95347),0.0123
14,SMG8 C555 (UniProt Q8ND04),-0.0118
15,SLC25A6 C57 (UniProt P12236),0.0535
16,SLC25A22 C271 (UniProt Q9H936),0.199
17,SMG8 C861 (UniProt Q8ND04),0.0727
18,SLC38A1 C131 (UniProt Q9H2H9),0.222
19,SMG7 C345 (UniProt Q92540),0.162
